Among the data in paper PMC10258307 are binding values, retold here.

Chains of the proteins cited; added tags and fusions are not shown. Lines headed by an entry give the natural chain unless they say otherwise; changes in a name come on top.
UniProt P20963: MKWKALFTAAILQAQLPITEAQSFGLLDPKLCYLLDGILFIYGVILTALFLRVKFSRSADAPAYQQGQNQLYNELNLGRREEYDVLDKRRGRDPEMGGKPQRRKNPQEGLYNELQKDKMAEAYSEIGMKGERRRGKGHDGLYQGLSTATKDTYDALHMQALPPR
UniProt P43403: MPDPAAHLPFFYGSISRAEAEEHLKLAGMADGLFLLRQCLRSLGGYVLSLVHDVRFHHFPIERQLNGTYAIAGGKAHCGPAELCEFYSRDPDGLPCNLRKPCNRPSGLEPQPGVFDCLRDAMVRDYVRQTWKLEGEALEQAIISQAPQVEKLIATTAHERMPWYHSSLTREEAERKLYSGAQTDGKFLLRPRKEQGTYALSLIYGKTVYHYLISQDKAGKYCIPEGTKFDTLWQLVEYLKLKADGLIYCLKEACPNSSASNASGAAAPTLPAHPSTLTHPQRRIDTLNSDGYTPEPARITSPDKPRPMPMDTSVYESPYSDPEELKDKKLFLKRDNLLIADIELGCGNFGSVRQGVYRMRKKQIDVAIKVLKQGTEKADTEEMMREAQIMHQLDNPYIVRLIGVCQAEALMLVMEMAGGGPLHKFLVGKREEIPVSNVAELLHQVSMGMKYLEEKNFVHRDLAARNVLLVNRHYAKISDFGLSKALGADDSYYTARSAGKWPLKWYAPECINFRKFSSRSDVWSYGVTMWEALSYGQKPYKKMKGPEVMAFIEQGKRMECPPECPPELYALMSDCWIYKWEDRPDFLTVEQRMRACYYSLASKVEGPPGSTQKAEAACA

For this test, the target named is TCR ζ chain (human (endogenous in Jurkat)) (UniProt P20963). Briefly: co-IP; TCR ζ immunoprecipitated (anti-TCR ζ clone 6B10.2, magnetic protein AG beads, 4°C) from lysates of 1x10^7 Jurkat cells after a 3 minute anti-CD3 mAb stimulation; IP buffer 0.5% NP-40, 0.5 sodium deoxycholate, 150 mM NaCl, 20 mM Tris pH 8, 1 mM sodium orthovanadate; immunoblot for ζ-associated ….

Results are given in words; binding and its absence hold for the method and conditions named. Binding seen in cells or lysates may run through a third protein. Some binding calls cover weakened binding; strength is not graded here.

Turning to “R170C ZAP-70 mutant (ectopic, in p116 cells) (from UniProt P43403 1-619)”, the binding entry was “no binding”.
As for “WT ZAP-70 (ectopic, in p116 cells) (from UniProt P43403 1-619)”, the entry is “binds”; as for “ZAP-70 (endogenous, parental Jurkat E6-1) (from UniProt P43403 1-619)”, “binds”.
